Experimental data: patent publication US8535648B2, “Stabilization of UV-sensitive active ingredients” (BASF SE, priority 2007, dated 2013)
The name of at least one read-out is uncertain.

Experiment: Photostability of sunscreen formulations: recovery of BMDBM after solar simulator irradiation, HPLC
Assay type: physicochemical
Settings: formulation with 2% BMDBM, with or without 2% merocyanine, 2 mg/cm^2 on roughened quartz plates, Atlas CPS+ solar simulator 760 W/m^2 (5 MED/h), 35-40° C.

With `COc1ccc(C(=O)CC(=O)c2ccc(C(C)(C)C)cc2)cc1` [Butyl Methoxydibenzoylmethane, 4-(tert-butyl)-4′-methoxydibenzoylmethane] the “Recovery of BMDBM after 20 MED ± standard deviation (n = 7)” value was “(1 ± 1) %”.
